According to patent US5480870A, “Tumor growth-inhibiting somatostatin analogues, pharmaceutical compositions containing them and process for preparing same” (Biosignal Kutato-Fejlesztokft, priority 1991, dated 1996):
At least one peptide structure holds a part that was inferred or is arguable (an end, a ring closure or a residue). Square brackets hold non-standard residues; d marks the D form. Peptide text beside a SMILES is read from it. 2Abz = Nc1ccccc1C(=O)O; Sar = CNCC(=O)O

System: rat hypophysis (GH release)
Experiment: Assay of the growth hormone (GH): GHRH-elicited GH release, superfusion method
Type: cell-based
Conditions: percentage of decrease (-) or increase (+) in GH amount released by GHRH
Description: The release or inhibition, respectively, of the release of GH were measured on rat hypophysis by using the superfusion method [Vigh et al.: Peptides 5, 241 (1984)]. As control, the GH amount was considered which was released by the GH releasing hormone (GHRH) given in the same dose as the sample. The activity of the somatostatin analogue was expressed as the percentage of decrease or increase, respectively, in the GH amount released by GHRH (Table II).

CC(=O)N(C)CC(=O)N[C@@H](Cc1ccc(O)cc1)C(=O)N[C@@H](Cc1ccc(O)cc1)C(=O)Nc1ccccc1C(=O)N[C@@H](CCCCN)C(=O)N[C@H](C(=O)N[C@@H](Cc1ccccc1)C(=O)N[C@@H](Cc1c[nH]c2ccccc12)C(N)=O)C(C)C [Example 16] (Ac-[Sar]YY[2Abz]KVFW-NH2)
Change of GH release: +9%
